## Library screening results

Mtb growth Cornell: 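Whole-cell assay for inhibitors of Mycobacterium tuberculosis growth, labelled Cornell in the record; the read-out is not stated. The concentration is filed as 10 mM, unlikely as a test dose, so the dose is not known. Higher means stronger inhibition (inferred from two other growth screens of the library). Size under these conditions: about 53,000 compounds, about 900 of them at 50% or above in at least one test.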
Mtb heat-shock: 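Assay on Mycobacterium tuberculosis, filed only as a heat shock assay from Cornell; the read-out is not stated. The concentration is filed as 10 mM, unlikely as a test dose, so the dose is not known. Higher reads as stronger inhibition (inferred: compounds with an IC50 in retests scored well above the rest). About 69,000 compounds were tested under these conditions; 1.4% (about 930) showed 50% or more at least once.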

Each number is a percent effect as filed.
The controls that fix the scale are not given in the record; negative values are as filed.
Compounds were drawn at random from those tested, without regard to their results.
A dash means the value is not listed here; it may have been measured.

Compound | Mtb growth Cornell | Mtb heat-shock
COC1(CNC(=O)c2ccc(F)c(F)c2)CCSC1 (configuration not stated) | -17.53% | 13.61%
CCc1nccn1C1CCCN(C(=O)c2ccc(-n3ccnc3)cc2)C1 (configuration not stated) | -5.148% | -6.992%
CN(Cc1nncn1-c1cccc(C(F)(F)F)c1)S(C)(=O)=O | - | 13.57%
CC(=O)NCCNC(=O)CN1CCCCC1Cn1cncn1 (configuration not stated) | - | 0.9307%
CCc1nc(CC(=O)N2CCC(C(=O)N3CCCCC3)CC2)cs1 | - | 1.911%
CCc1c(O)nc2nc(N3CCCC3)nn2c1C | 14.7% | -13.25%
CC(C)N1CCCC2(CCN(C(=O)COCC(F)(F)C(F)F)C2)C1=O (configuration not stated) | -0.8311% | 20.66%
O=C(CSCCN1CCOCC1)N1CCCCCC1 | -6.957% | -14.9%
COC(=O)c1c(Cl)c(C)nc2onc(C)c12 | 15.45% | -1.585%
Cc1ccc(N(C)Cc2nnnn2C2CC2)c(C)c1 | - | -6.548%
Cn1nccc1C(=O)N1CCCC2(CCN(c3ccsc3)C2=O)C1 (configuration not stated) | -8.585% | 3.871%
CN(C)c1ccc(CCCNC(=O)NCC(O)c2ccsc2)cc1 (configuration not stated) | 10% | -17.52%
CSC(C)(C)CNC(=O)NC1CCSCC1 | 10.19% | -11.49%
Cc1nnc2n1CCN(CCOc1cccc(C#N)c1)C2 | -10.84% | -0.7454%
Cc1cc(CC(=O)NCC(O)COc2ccc(F)c(F)c2)n[nH]1 (configuration not stated) | -0.3728% | -2.29%
O=C(NCC1CCOC1)c1csc(-c2ccccc2)n1 (configuration not stated) | -14.52% | -23.77%
Cc1noc(C)c1-c1ccc(C2CCCN2C(=O)c2cccnn2)nc1 (configuration not stated) | -54.59% | -25.39%
CCn1c(C2CCN(C(=O)c3cc(C4CC4)on3)CC2)nn(C)c1=O | 4.422% | 9.688%
Cc1nnc2n1CCN(C(=O)c1cc(C)n(-c3ccccn3)c1C)C2 | 23.24% | -3.132%
[H][C@]12CCC(=O)N(c3ccccc3)[C@@]1([H])CCN2C(=O)N1CCOCC1 | 0.6202% | -4.503%
CNC(=O)N1CCc2cc(C(=O)N(C)C)c(NCC3CC3)nc2CC1.O=C(O)C(F)(F)F | 10.55% | -2.409%
CC(C)[C@H]1CN(Cc2nccn2C)C[C@@H]1NC(=O)COCC(N)=O | -58.08% | -22.71%
Cc1ccnn1CC(=O)N(C)Cc1cnn(-c2ccccc2)c1 | 9.476% | -4.037%
[H][C@@]12CCC(=O)N(c3ccccc3)[C@]1([H])CCN2C(=O)c1cccs1 | 8.512% | 2.143%
Cc1ccc2nc(C)cc(NCCNS(=O)(=O)c3cccnc3)c2c1 | 6.534% | 9.323%
CC(C)(C)c1nc2cc(NC(=O)Cn3ccc(=O)[nH]c3=O)ccc2o1 | - | 10.18%
COCCCN1CCN(CC2CCCO2)CC1 (configuration not stated) | -44.44% | -40.1%
CCn1nc(C)cc1S(=O)(=O)N1CCC2(CCCN(C(C)C)C2=O)C1 (configuration not stated) | 10.51% | 3.846%
NC1CCN(c2nccn3c(=O)[nH]nc23)CC1 | - | -14.19%
Cc1ccc(CNC(=O)Nc2cc(C(F)(F)F)c[nH]c2=O)cn1 | -28.59% | 1.807%
COC(=O)c1ccc(N2CCN(CCC(=O)NC(N)=O)C(C)C2)cc1 (configuration not stated) | 43.72% | 18.66%
[H][C@@]1([C@H](C)C(=O)O)CCc2c(C)cc(OC)c(C)c2C1 | -2.902% | -5.442%
O=C(O)C(F)(F)F.O=C(O)C(F)(F)F.[H][C@@]12CCN(C(=O)c3cnn(C)c3)[C@@]1([H])CCN2Cc1cccc(C)n1 | -12.2% | -15.63%
CC1(C)CC(N(Cc2ccncc2)Cc2cccnc2)CC(C)(C)N1.O=C(O)CC(O)(CC(=O)O)C(=O)O | - | -30.02%
COCCc1noc(CNC(=O)C2CC(=O)N(C(C)(C)C)C2)n1 (configuration not stated) | -54.19% | -10.73%
CC(=O)c1ccc(OCC(=O)NS(=O)(=O)c2ccc(C)s2)cc1 | - | -13.2%
Cn1nc(C(=O)NCCc2ccc(OC3CCCC3)cc2)ccc1=O | -9.289% | 7.524%
Nc1nccnc1C(=O)NC1CCN(Cc2ccccc2)C1 (configuration not stated) | -2.503% | -25.75%
[H][C@]12CC[C@]([H])(CN(C(=O)c3cc(Cl)c[nH]c3=O)C1)N(Cc1ccccc1)C2 | -22.9% | -5.244%
CCC(CN1CCCC1)n1cncc1-c1cnn(Cc2ccccc2)c1.Cl (configuration not stated) | 36.43% | -1.919%
O=C1C(Nc2ccc3nccnc3n2)CCN1c1ccccc1F (configuration not stated) | - | -24.29%
Cc1cc(C(=O)NCCN2CCCCC2)nn1C(C)(C)C | 5.147% | -12.19%
CCc1c(C(=O)O)nnn1-c1cccc(C)c1C | 8.389% | -6.041%
CN(C)C(=O)CN1CCCCC1c1nc(N)ncc1-c1cccc(F)c1 (configuration not stated) | - | -26.18%
COCC1c2nnn(CC3CC3)c2CCN1C(=O)c1ccnnc1 (configuration not stated) | -4.545% | -6.272%
[H][C@@]12CCN(CC3CC3)[C@@]1([H])CCN2C(=O)c1ccoc1 | 4.271% | -4.114%
NC(=O)CS(=O)(=O)Cc1csc(-c2ccc(F)cc2)n1 | -0.1222% | -2.584%
CC(Cn1cccn1)NCC(=O)NCCc1cccs1 (configuration not stated) | -12.19% | -0.01833%
COCCN1CCN(Cc2csc(-c3cnn(C)c3)n2)CC1 | - | -7.864%
Clc1ccc(CN(CCN2CCOCC2)Cc2cccnc2)c(Cl)c1 | 5.146% | -10.75%
O=C(O)C(F)(F)F.[H][C@@]12CCN(c3cnccn3)C[C@]1([H])CN(C(=O)C1CCCO1)C2 (some centres not stated) | 30.53% | -7.753%
COCC1CCN(c2ccnc3ccsc23)C1 (configuration not stated) | -2.044% | -1.026%
Cc1nc(CN2CCOCC3(CCN(c4ccccn4)C3)C2)cs1.O=C(O)C(F)(F)F.O=C(O)C(F)(F)F (configuration not stated) | -8.753% | -41.64%
CN(C)CC(=O)N1CCC2(CC(=O)N(c3cccc(C#N)c3)C2)C1.O=C(O)C(F)(F)F (configuration not stated) | -6.169% | -26.53%
CC1(c2nccs2)CCN(C(=O)CCN2CCOCC2)CC1 | -2.274% | -9.261%
Cc1nc(COC[C@@H]2CCC[C@@]23CNCCO3)cs1.Cl.Cl | -19.07% | -12.44%
Cc1ccc(CC(=O)NCC(O)c2cccc(C(F)(F)F)c2)cn1 (configuration not stated) | 13.87% | 1.875%
COc1ccc(Cl)cc1C(=O)NCC1CCN(C(=O)c2ccoc2)CC1 | 23.42% | -16.83%
CCc1nn(C)c(CC)c1CNC(=O)Nc1cccc([S+](C)[O-])c1 (configuration not stated) | - | -17.47%
[H][C@@]12CCCO[C@]1([H])[C@@H](N(C)Cc1cncnc1)CN2C(=O)c1ccco1 | 7.767% | -2.729%
Cc1cnn(C2CN(CCCOc3ccc(C#N)cc3)C2)c1 | - | 3.618%
O=S(=O)(NC1=NCN(CCc2cccs2)CN1)c1ccc(F)cc1 | - | -4.593%
O=C1CC2(CCN(C(=O)c3ccccn3)CC2)Oc2c(Br)cc(Br)cc21 | -13.43% | 19.51%
COCCNC(=O)c1cc(S(=O)(=O)N2CCCCC2)cs1 | -18.5% | -8.692%
Cn1nccc1-c1cnc2n1CCC21CCN(C(=O)C2(C)CC2)CC1 | -2.889% | 29.6%
CN1N=C(C(=O)N2CCN(c3ncccc3Cl)CC2)CCC1=O | 0.8893% | -0.6095%
CCn1ncc(CNc2[nH]cnc3nncc2-3)c1C | 4.189% | 19.35%
[H][C@@]12CCCO[C@]1([H])[C@H](N(C)Cc1cccnc1)CN2c1ccccn1 | 3.977% | 2.208%
CC(C)OCc1ccccc1CNC(=O)C(C)(C)C | 18.04% | 4.147%

The last 7 entries again:

* O=C1CC2(CCN(C(=O)c3ccccn3)CC2)Oc2c(Br)cc(Br)cc21 : Mtb growth Cornell: -13.43%; Mtb heat-shock: 19.51%
* COCCNC(=O)c1cc(S(=O)(=O)N2CCCCC2)cs1 : Mtb growth Cornell: -18.5%; Mtb heat-shock: -8.692%
* Cn1nccc1-c1cnc2n1CCC21CCN(C(=O)C2(C)CC2)CC1 : Mtb growth Cornell: -2.889%; Mtb heat-shock: 29.6%
* CN1N=C(C(=O)N2CCN(c3ncccc3Cl)CC2)CCC1=O : Mtb growth Cornell: 0.8893%; Mtb heat-shock: -0.6095%
* CCn1ncc(CNc2[nH]cnc3nncc2-3)c1C : Mtb growth Cornell: 4.189%; Mtb heat-shock: 19.35%
* [H][C@@]12CCCO[C@]1([H])[C@H](N(C)Cc1cccnc1)CN2c1ccccn1 : Mtb growth Cornell: 3.977%; Mtb heat-shock: 2.208%
* CC(C)OCc1ccccc1CNC(=O)C(C)(C)C : Mtb growth Cornell: 18.04%; Mtb heat-shock: 4.147%

The values are deposited in ChEMBL (CHEMBL3988442, “University of Dundee, Small-Polar-MMV Screening Library” (2021)).